## Primary screen of a compound library

Each number is a percent effect as filed. The controls that fix the scale are not given in the record; negative values are as filed. Compounds were drawn at random from those tested, without regard to their results.

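Assay of Toxoplasma gondii numbers, read through their beta-galactosidase reporter with a colour substrate. Compounds at 50 µM. The record gives no direction; the compounds picked for IC50 retests had high values, so higher reads as fewer parasites. Of about 18,000 compounds tested this way, about 170 (0.94%) reached 50% or more in at least one test.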

| SMILES | Percent Effect |
|---|---|
| `CCCC1SCCN1C(=O)c1c[nH]c(=O)cc1C` (configuration not stated) | -0.4903% |
| `Cc1cccc(NC(=O)CCN)n1` | -11.9% |
| `CNCC(=O)N1CCC(Oc2ccc(C)cc2)CC1` | -6.909% |
| `c1cc2nnnn2nc1NC1CCN(C2CC2)CC1` | -1.721% |
| `CC(C)n1[nH]c(-c2ccccc2)cc1=N` | -25.93% |
| `CCC(NC(=O)c1cc(=O)cc(C)o1)c1nc(C)no1` (configuration not stated) | -4.255% |
| `OC(CN1CCn2ccnc2C1)c1cccc(F)c1` (configuration not stated) | 31.02% |
| `N#CCC1(O)CN(C(=O)c2csc(I)c2)C1` | -6.594% |
| `Cn1c(C(=O)OCCCC(N)=O)cc2ccccc21` | 13.1% |
| `CCS(=O)(=O)CC(C)NC1CCN(C(C)C)CC1` (configuration not stated) | 7.421% |
| `NC1CCOc2ccc(F)cc21` (configuration not stated) | -1.266% |
| `Cc1nc(C)c(C(=O)NC(CCO)c2cccs2)o1` (configuration not stated) | 10.42% |
| `CC(C)[C@H](N)C(=O)N(C)CCc1ccncc1` | -8.045% |
| `O=C(NCc1ccnc(N2CCCC2)c1)c1ccsc1` | 4.667% |
| `COc1ccc(CC(=O)NCCN(C)C)cc1OC` | -2.002% |
| `OCC1CCN(Cc2cc(Cl)c3c(c2)OCCO3)CC1` | 2.391% |
| `c1cc2nnnn2nc1NCCN1CCCCCC1` | -19.98% |
| `Cn1ccc2ccc(NS(=O)(=O)C3CC3)cc2c1=O` | 65.83% |
| `Cc1ccc2c(c1)C(O)CCCS2(=O)=O` (configuration not stated) | -0.2844% |
| `CNC(=O)CSc1ncc2ccccn12` | -4.168% |
| `Cc1nc(CC(=O)N[C@H]2CC[C@H]2N)cs1` | 7.419% |
| `O=C(NCc1nccs1)c1ccc(F)cc1F` | 14.36% |
| `CC(C#N)N1CCN(C(=O)OC(C)(C)C)CC1` (configuration not stated) | -5.211% |
| `CCOCCN1CCN(CCCN2CCCC2=O)CC1` | 3.205% |
| `CNCC(=O)NC(c1ccccc1)c1nccn1C` (configuration not stated) | 18.56% |
| `CCC(C#N)N1CCC(C(N)=O)CC1` (configuration not stated) | -22.91% |
| `COCC(O)CN(C)C(=O)Cc1cc(Cl)ccc1Cl` (configuration not stated) | 9.798% |
| `CC(C)n1cnnc1CCNC(=O)C1(C)CCCCO1` (configuration not stated) | -9.962% |
| `CCc1nccn1CCNC(=O)Cn1nc(C)cc1N` | 0.7856% |
| `CCCn1cc(CNC(=O)c2cn(CCN)nn2)cn1` | 1.621% |
| `CCCn1nc(C(=O)N2CCC2)c2ccccc2c1=O` | -7.013% |
| `CC(Sc1ncccc1Br)C(=O)N(C)CCC#N` (configuration not stated) | 1.925% |
| `CNCC(=O)Nc1ccc(N2CCOCC2)cc1` | -0.7415% |
| `Cc1c[nH]c(CN2CC[C@](C)(O)[C@H](C)C2)c(C)c1=O` | -15.41% |
| `Cc1cccc(NC(=O)NCCCn2cccn2)n1` | 14.93% |
| `CC(C)c1nnc(NC(=O)N2CCN(C)CC2C)s1` (configuration not stated) | -16.37% |
| `CC(C)Oc1ccc(CN)cc1` | -30.69% |
| `O=C1C2CSCC1CN(Cc1ccccc1)C2` | 9.677% |
| `O=C(Cn1cccn1)N1CCCC1c1ccsc1` (configuration not stated) | -2.581% |
| `CCOc1ncc(C(=O)NCC(C)(O)C(C)C)cc1Cl` (configuration not stated) | 17.22% |
| `CC1(C)CN(c2cncc(C(N)=O)n2)C[C@]1(C)O` | -2.648% |
| `COc1ccc(N2C(=O)C=CC2=O)cc1OC` | 14.25% |
| `CCOC(=O)CN(C(C)=O)c1ccc(C)cc1` | 14.07% |
| `Cc1noc(NCc2cccc3cn[nH]c23)n1` | 18.88% |
| `CCN(C(=O)c1cc(F)ccc1OC)[C@H]1COC[C@@H]1O` | -8.019% |
| `CN(C)CCNc1oc(-c2ccccc2)nc1C#N` | -21.34% |
| `O=C1COc2ccc(NC(=O)c3ccccc3)cc2N1` | 3.882% |
| `Cn1ccsc1=NC(=O)c1cnc(C2OCCO2)s1` | -17.36% |
| `COC(=O)c1oc(CSc2cnn[nH]2)cc1C` | 9.719% |
| `CC(=O)c1c(C)cccc1NCC(=O)N(C)C` | -19.59% |
| `NS(=O)(=O)NCC1CCN(c2cccc(Br)c2)C1` (configuration not stated) | 6.442% |
| `Cc1ccc(NC(=O)C(C)N2CCC(O)CC2)c(C)c1` (configuration not stated) | 5.415% |
| `CCc1ccc(C(=O)NC(C)C(N)=O)o1` (configuration not stated) | -0.9378% |
| `COC(=O)C(C)(C)CNCc1ccc(C#N)o1` | -2.014% |
| `Cc1noc(CN)n1` | 8.596% |
| `CCNC(=O)c1ccn(-c2ccccc2)n1` | -12.21% |
| `CCC(C)(C)NC(=O)c1nnn(-c2ccccc2)c1C` | -9.608% |
| `CCOC(=O)CN1C(=O)c2ccc(Br)cc2C1=O` | -3.264% |
| `CC(C)(C)OC(=O)N[C@@H]1COCC[C@@H]1N` | -8.703% |
| `NCc1ccc(N2CCNCC2)cc1` | -10.08% |
| `COc1ncccc1CN(C)C(=O)c1ccccc1F` | -7.065% |
| `CN(C)c1ncc(CN2CCS(=O)(=O)CC2)cn1` | 2.514% |
| `CCS(=O)(=O)NCCNC(=O)c1cc(C)cc(Br)c1` | -10.43% |
| `CN1C[C@@H]2CN(C(=O)c3cc(C4CC4)on3)C[C@@H]2C1` | -3.601% |
| `NC(=O)COc1cc(Cl)cc(Cl)c1` | -1.728% |
| `CN(Cc1ccc2nonc2c1)C(=O)c1ccon1` | -0.1234% |
| `N#CC1CCCN(CCC(=O)Nc2cccnc2)C1` (configuration not stated) | -6.081% |
| `Cc1ccccc1C(=O)NCCC(=O)NC1CC1` | 5.148% |
| `Cc1ccc(NC(=O)CS(C)(=O)=O)c(C)c1` | -3.268% |
| `COC(=O)Cn1c(=O)oc2ccccc21` | -17.76% |
| `CC(C)CC(C)CN1CCN(CCS(C)(=O)=O)CC1` (configuration not stated) | -18.72% |
| `CC(C)(C)c1nnc(SCCC(N)=O)o1` | -13.87% |
| `Cc1nn(C)c(C)c1CCC(=O)NC1CCCNC1=O` (configuration not stated) | -18.77% |
| `Cc1nccn1-c1ccc(C(C)N)cc1` (configuration not stated) | 10.72% |
| `COCc1nc(CN2CCN(C(C)=O)CC2)no1` | 14.75% |
| `CCc1noc(C)c1C(=O)NC(C)c1ccncc1` (configuration not stated) | -14.23% |
| `OC(CNc1ncnc2ncccc12)C1CCCC1` (configuration not stated) | -23.21% |
| `CN(Cc1ccc(N)nc1)c1ccc(C#N)cn1` | 6.145% |

Once more, the final 7:

{"smiles": "CC(C)(C)c1nnc(SCCC(N)=O)o1", "Percent Effect": -13.87}
{"smiles": "Cc1nn(C)c(C)c1CCC(=O)NC1CCCNC1=O", "stereo": "configuration not stated", "Percent Effect": -18.77}
{"smiles": "Cc1nccn1-c1ccc(C(C)N)cc1", "stereo": "configuration not stated", "Percent Effect": 10.72}
{"smiles": "COCc1nc(CN2CCN(C(C)=O)CC2)no1", "Percent Effect": 14.75}
{"smiles": "CCc1noc(C)c1C(=O)NC(C)c1ccncc1", "stereo": "configuration not stated", "Percent Effect": -14.23}
{"smiles": "OC(CNc1ncnc2ncccc12)C1CCCC1", "stereo": "configuration not stated", "Percent Effect": -23.21}
{"smiles": "CN(Cc1ccc(N)nc1)c1ccc(C#N)cn1", "Percent Effect": 6.145}

Data taken from ChEMBL document CHEMBL3988442, “University of Dundee, Small-Polar-MMV Screening Library” (2021).